Measured values reported in PubChem BioAssay AID1347076 (National Center for Advancing Translational Sciences (NCATS), 2019).
Where “and” joins values, the source holds several entries; their conditions need not be identical. Identical values can stand only once. About 13,000 (3.2%) of roughly 400,000 compounds were called active. Inconclusive means that the source gave no clear call. Such entries were picked first, then a sample of the others. The call rests on the fitted dose curve; in most records, active means well fitted cell-killing curve with a large enough effect; inconclusive means small, poorly fitted or top-dose-only effect, or effect the other way; inactive means flat fitted curve, though single readings scatter. Potencies of inconclusive entries are doubtful fits and often do not repeat.
Potency means the concentration at half of the fitted maximal effect.

Assay: qHTS assay for MDR1-selective chemotherapeutics: Primary screen using the drug-selected MDR subline cells KB-V1; further: nearly all actives have a fitted effect of over 60% in size
Details: KB-V1 MDR cells viability, CellTiter-Glo, 72 h; series mostly up to 46.1 µM
Method in brief: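 Potencies derive from concentration-effect curves fitted to normalized luminescence (CellTiter-Glo) of KB-V1 cells treated for 72 h at 37 degrees C in phenol-red-free DMEM containing 10% FBS.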
With O=C1/C(=C/c2cccc(F)c2)Oc2cc(O)ccc21 the Potency was “inactive”. With CCN1CCCC1CNC(=O)CN(C)S(=O)(=O)c1ccc(Cl)cc1 (centres undefined) the Potency was inconclusive: 29.1 µM [rising, single point]. For COc1ccc(-c2cc3cc(-c4cc(OC)c(OC)c(OC)c4)ccc3o2)cc1, the Potency was “inactive”. For Cc1c(NC(=O)CCC(=O)N2CCCCC2)c(=O)n(-c2ccccc2)n1C, the Potency was inconclusive: 5.8 µM [rising, single point]. With CCOC(=O)c1c(C)[nH]c(C(=O)N/N=C/c2cc([N+](=O)[O-])ccc2O)c1C the Potency was inconclusive: 14.6 µM [cytotoxic, partial curve]. With CNc1nc(N)c([N+](=O)[O-])c(Nc2ccccc2OC)n1 the Potency was inconclusive: 23.1 µM [cytotoxic, single point]. With COc1cc(/C=C2\Oc3ccc(C#Cc4ccc(O)cc4)cc3C2=O)cc(OC)c1 the Potency was active: 7.31 µM. In the case of CCOC(=O)c1cccc(NC(=O)C(CC(C)C)N2Cc3ccccc3C2=O)c1 (centres undefined), the Potency is reported as inconclusive: 5.8 µM [rising, full curve]. With COc1cccc(NC(=O)c2ccc(NC(=O)C(C)(C)C)cc2)c1 the Potency was active: 23.1 µM. In the case of OC1CC2CCC(C1)N2CCCN1c2ccccc2Sc2ccc(Cl)cc21 (centres undefined), the Potency is reported as inconclusive: 29.1 µM [cytotoxic, single point]. In the case of C[C@H]1CN(C2CCCCC2)C(=O)[C@@H]1CC(=O)Nc1ccccc1, the Potency is reported as inconclusive: 20.6 µM [cytotoxic, partial curve]. For Cc1ccc(C)c(-n2cc(CNCCc3cnccn3)c(-c3ccccc3)n2)c1, the Potency was inconclusive: 4.11 µM [cytotoxic, partial curve]. With COc1cccc(C(=O)N(C)c2nnc(-c3ccncc3)s2)c1 the Potency was inconclusive: 0.0184 µM [cytotoxic, full curve, poor fit]. For Cc1cc(=O)[nH]c(N/N=C/c2c(F)c(F)c(F)c(F)c2F)n1, the Potency was inconclusive: 32.6 µM [rising, single point]. With COC(=O)c1cc(S(=O)(=O)NCc2ccc3c(c2)OCO3)cn1C the Potency was inconclusive: 29.1 µM [rising, single point]. With Cc1cc(N2CCN(Cc3cn(C)nc3-c3cccc(Cl)c3)CC2)cc(C)n1 the Potency was inconclusive: 18.4 µM [cytotoxic, single point]. In the case of Cc1ccc2nc(SCc3nc4ccccc4c(=O)[nH]3)[nH]c2c1, the Potency is reported as inconclusive: 18.4 µM [cytotoxic, partial curve, poor fit]. In the case of CSCCC(C(=O)NC1CCCC1)n1c(C2CCCC2)nc2ccccc21 (centres undefined), the Potency is reported as inconclusive: 2.91 µM [cytotoxic, partial curve, poor fit]. In the case of COc1ccc(-c2coc3c(C(=O)NCc4ccccc4)cccc23)c(C)c1, the Potency is reported as inconclusive: 20.6 µM [cytotoxic, single point]. With CC1CCN(C(=O)CCC(=O)Nc2ccc([N+](=O)[O-])cc2)CC1 the Potency was inconclusive: 20.6 µM [rising, single point]. In the case of COC(=O)[C@@]1(Sc2ccc(C)cc2)CC(=O)N(C(=O)c2ccccc2)[C@@H]1c1ccccc1, the Potency is reported as inconclusive: 29.1 µM [rising, partial curve, poor fit]. For O=C(NCC1COc2ccccc2O1)c1ccc(NC(=O)c2ccco2)cc1 (centres undefined), the Potency was inconclusive: 16.4 µM [cytotoxic, partial curve]. For CC1=C(C(=O)N(C)C)CC(CC(=O)NCc2cccs2)C(=O)N1Cc1ccc(F)cc1 (centres undefined), the Potency was “inactive”. For CCCCOc1cccc(C(=O)N(Cc2ccc(C)o2)c2ccccn2)c1, the Potency was “inactive”. For CC1CC(C)(C)NC(=S)N1CCC(=O)N1CCN(Cc2ccccc2)CC1 (centres undefined), the Potency was inconclusive: 20.6 µM [cytotoxic, partial curve, poor fit]. With CNC(=O)c1cccc2nc3ccccc3nc12 the Potency was inconclusive: 20.6 µM [cytotoxic, single point]. With CN(C)c1ccc(Cl)c(NC(N)=S)c1 the Potency was “inactive”. With Cn1c(=O)c2[nH]c(CN(Cc3ccccc3)Cc3ccccc3)nc2n(C)c1=O the Potency was active: 8.2 µM. With CCOC1=C(C#N)CC2(CC1)c1ccccc1-c1ccccc12 the Potency was inconclusive: 29.1 µM [cytotoxic, single point]. For CC(C)NC(=O)N(C)C[C@H]1Oc2ccc(NS(=O)(=O)c3ccc(F)cc3)cc2C(=O)N([C@H](C)CO)C[C@@H]1C, the Potency was “inactive”. With CN(C(=O)CN1CCN(c2cc(-c3cccc4oc5ccccc5c34)ncn2)CC1)c1ccccc1 the Potency was “inactive”. In the case of CC(OC(=O)[C@H](C)NC(=O)c1ccccc1Cl)C(=O)NCc1ccc2c(c1)OCO2 (some centres undefined), the Potency is reported as inconclusive: 20.6 µM [cytotoxic, partial curve, poor fit]. With Cc1ccc(-c2ccc(SCC(=O)NCC3CCCO3)nn2)cc1 (centres undefined) the Potency was inconclusive: 16.4 µM [cytotoxic, single point]. For Fc1ccc(-n2c(-c3ccc4c(c3)OCO4)n[nH]c2=S)cc1Cl, the Potency was “inactive”. With Cc1ccc(C(=S)N2CCN(Cc3ccccc3)CC2)s1 the Potency was inconclusive: 23.1 µM [cytotoxic, single point]. For CC(=O)Nc1nc(C)c(-c2csc(Nc3cccc(C(C)=O)c3)n2)s1, the Potency was inconclusive: 16.4 µM [cytotoxic, single point]. In the case of Fc1ccc(CSc2nc3ccccc3[nH]2)c2ccccc12, the Potency is reported as inconclusive: 25.9 µM [cytotoxic, partial curve, poor fit]. With CC(=O)N[C@@H](Cc1c[nH]c2ccccc12)C(=O)OCC(=O)Nc1ccc2c(c1)OCO2 the Potency was “inactive”. With CC(C)Cn1c(N)c(C(=O)COC(=O)[C@@H]2CCCN2C(=O)c2cccs2)c(=O)n(C)c1=O the Potency was “inactive”. In the case of Clc1ccc(CO/N=C/c2c(-c3ccccc3)nc3n2CCS3)c(Cl)c1, the Potency is reported as active: 14.6 µM. In the case of Cc1ccc(S(=O)(=O)NNC(=O)C2Cc3c(ccc4ccccc34)O2)cc1 (centres undefined), the Potency is reported as “inactive”. For Cc1nonc1NC(=O)CSc1nc(C23CC4CC(CC(C4)C2)C3)nc2ccccc12, the Potency was inconclusive: 16.4 µM [cytotoxic, single point]. For C/C(=C/c1ccccc1)C(=O)N1CCN(c2ccc(F)cc2)CC1, the Potency was inconclusive: 0.0058 µM [rising, full curve, poor fit]. With COc1ccc(-n2c(-c3ccc(Br)cc3)c[n+]3c2SC(C)C3)cc1 (centres undefined) the Potency was “inactive”. For Oc1ccc(-c2csc(Nc3ccccn3)n2)cc1O, the Potency was “inactive”. For O=c1c2ccccc2nnn1CSc1nnc(C2COc3ccccc3O2)n1-c1ccccc1 (centres undefined), the Potency was inconclusive: 16.4 µM [cytotoxic, partial curve, poor fit]. In the case of CCCN(CC(=O)Nc1ccccc1C)C(=O)c1ccc(-c2ccccc2)cc1, the Potency is reported as “inactive”. For COc1cc(OC)cc(C(=O)Nc2ccc(-n3cnnn3)c(C)c2)c1, the Potency was inconclusive: 20.6 µM [cytotoxic, partial curve]. In the case of COc1ccccc1-n1c(SCC(=O)NC2CCS(=O)(=O)C2)nc2ccccc2c1=O (centres undefined), the Potency is reported as inconclusive: 25.9 µM [rising, single point]. In the case of O=C(CSc1nnc(NC(=O)c2ccccc2)s1)NC1CCCC1, the Potency is reported as “inactive”. For N#C/C(=C/c1ccc2c(c1)OCO2)C(=O)NCCc1c[nH]c2ccccc12, the Potency was active: 14.6 µM. In the case of CN(C)C(=O)c1ccc(Nc2ncnc3sc4c(c23)CCCCC4)cc1, the Potency is reported as inconclusive: 10.3 µM [cytotoxic, partial curve, poor fit]. With c1ccc2nc(N3CCN(Cc4ccc5c(c4)OCO5)CC3)cnc2c1 the Potency was inconclusive: 29.1 µM [cytotoxic, single point]. With Cc1cc(OCCCn2ccnc2)cc(C)c1Cl the Potency was inconclusive: 18.4 µM [cytotoxic, partial curve]. With O[C@@H](c1cc(C(F)(F)F)nc2c(C(F)(F)F)cccc12)[C@H]1CCCCN1 the Potency was inconclusive: 29.1 µM [cytotoxic, single point] and inconclusive: 25.9 µM [cytotoxic, single point]. In the case of O=C1OCCN1C(=O)[C@H]1[C@H](c2ccccc2)C(c2ccc(F)cc2)=NN1c1ccc(Br)cc1, the Potency is reported as “inactive”. For O=C(COC(=O)c1ccc(Cl)nc1)Nc1ccc(N2CCCCC2)cc1, the Potency was “inactive”. For Cc1ccc(Cl)cc1N1CCN(CCCNC(=O)c2ccc3nc(N4CCCCC4)sc3c2)CC1, the Potency was active: 16.4 µM. For COc1ccccc1NC(=O)Cn1nc(C(F)(F)F)c2c1CCCC2, the Potency was active: 20.6 µM. For COCCCNC(=S)N1CCN(c2ccc([N+](=O)[O-])cc2)CC1, the Potency was active: 16.4 µM. With O=C(COC(=O)CN1C(=O)NC2(CCCC2)C1=O)Nc1c(Cl)cccc1C(F)(F)F the Potency was “inactive”. With CSCC[C@H](NC(=O)Nc1ccc(S(N)(=O)=O)cc1)C(=O)O the Potency was “inactive”. With Cc1[nH]n(-c2ccccc2)c(=O)c1C(c1cccc([N+](=O)[O-])c1O)c1c(C)[nH]n(-c2ccccc2)c1=O the Potency was “inactive”. With O=C(O)C1C2CCC(O2)C1C(=O)NCCC1=CCCCC1 (centres undefined) the Potency was inconclusive: 18.4 µM [cytotoxic, single point]. In the case of N/C(=N\OC(=O)CCCc1ccccc1)c1ccc(Br)cc1, the Potency is reported as inconclusive: 23.1 µM [rising, partial curve, poor fit]. In the case of Cc1ccc(NNC(=O)C(O)(c2cccc(C(F)(F)F)c2)c2cccc(C(F)(F)F)c2)cc1, the Potency is reported as inconclusive: 23.1 µM [cytotoxic, single point]. In the case of O=S(=O)(Cc1ccccc1)N1CCN(c2ncccn2)CC1, the Potency is reported as “inactive”. For CCOC(=O)Cn1c2c(c(=N)c3ccccc31)CCC2, the Potency was inconclusive: 14.6 µM [rising, partial curve]. In the case of CCOc1ccc(NS(=O)(=O)N(C)C)cc1, the Potency is reported as inconclusive: 32.6 µM [rising, single point].
